Earlier results as cited in patent publication US20210236575A1 (priority 2018, published 2021).

Target: CB1 receptor
Conditions: read-out: Ki affinity binding; Stefano et al, 1997; cited from earlier work

## NCCCC(=O)O [GABA, Gamma aminobutyric acid]
  Ki: 760 to 1000 nM
